Laboratory results from PubChem BioAssay AID540256 (National Center for Advancing Translational Sciences (NCATS), 2011).
Out of some 300,000 compounds screened, about 3,700 (1.2%) were called active. Inconclusive results, whose numbers are uncertain, are shown with a selection of clear calls. The call rests on the fitted dose curve; tested in HEK293 cells. Potencies beside an inconclusive call are fits to weak or partial responses and may not hold up.

Experiment: qHTS for Inhibitors of binding or entry into cells for Lassa Virus; further: nearly all actives have a fitted effect of over 50% in size
Settings: Lassa virus pseudotype entry inhibition, cell reporter; activity change, negative = inhibition: at 37.9 µM (top of the series) unless noted
On the % scale 0 is the no-effect control and ±100 the full control effect; potency means the concentration at half of the fitted maximal effect.

| SMILES | Potency | activity change, negative = inhibition |
| --- | --- | --- |
| Cc1ccc(N2C(=O)N(CC(=O)Nc3cccc(Cl)c3)C(=O)C2C)cc1 (configuration not stated) | inconclusive: 6.31 µM [inhibitor, single point] | – |
| O=C(CP(=O)(c1ccccc1)c1ccccc1)N/N=C/c1cc(Br)cc(Br)c1O | active: 2.82 µM | – |
| CCCCn1c(=O)[nH]c(=O)c2c1nc(-c1ccc([N+](=O)[O-])cc1)n2CC | inconclusive: 0.891 µM [inhibitor, full curve, poor fit] | – |
| Cc1cc(C)c(S(=O)(=O)Nc2ccc(-c3cn4ccccc4n3)cc2)c(C)c1 | – | inactive: -2.38% |
| O=C1CCCCC1C(=O)c1cn(-c2ccc(Cl)c(Cl)c2)nn1 (configuration not stated) | inconclusive: 5.62 µM [activator, single point] | – |
| O=C1OC(c2ccc(Br)cc2)=N/C1=C\c1ccco1 | – | inactive: 18.9% |
| Cc1ccc(NC(=O)Cn2c(=O)n(Cc3nc(C)no3)c(=O)c3cc4c(cc32)OCO4)c(C)c1 | – | inactive: 11.3% [at 46.1 µM] |
| O=C(COc1ccccc1)N1CCc2ccccc21 | inconclusive: 18.4 µM [activator, single point] | – |
| O=C(CC1CCCCC1)N1CCC(c2nc(-c3ccc(S(=O)(=O)N4CCCC4)cc3)no2)CC1 | inconclusive: 29.1 µM [inhibitor, single point] | – |
| Clc1cccc(Nc2nc(-c3ccncc3)cs2)c1 | inconclusive: 7.08 µM [inhibitor, single point] | – |
| COc1ccc(-c2cnc3ccccc3n2)cc1NC(=O)CNC(=O)c1ccccc1 | inconclusive: 5.62 µM [activator, partial curve, poor fit] | – |
| COc1ccc(C(=O)c2c(C)c3ccccc3n2CC(O)CNC(C)C)cc1 (configuration not stated) | inconclusive: 29.1 µM [inhibitor, single point] | – |
| O=c1[nH]c(=O)n(-c2ccccc2)c2c1C(C(F)(F)F)(C(F)(F)F)N=C(C1CCCCC1)N2 | inconclusive: 2 µM [inhibitor, partial curve, poor fit] | – |
| CCCNc1cccc(-n2ncc3c(NN=Cc4ccncc4)ncnc32)c1 | inconclusive: 4.45 µM [inhibitor, full curve, poor fit] | – |
| COc1ccc(C(=O)Nc2nc3n(n2)C(c2ccccc2)C=C(c2ccccc2)N3)cc1 (configuration not stated) | inconclusive: 35.5 µM [inhibitor, single point] | – |
| O=C(CCS(=O)(=O)c1nc(-c2cccs2)cc(C(F)(F)F)n1)Nc1cc(Br)ccc1O | inconclusive: 10 µM [inhibitor, single point] | – |
| COc1ccc(-c2nnnn2-c2ccccc2OC)cc1 | inconclusive: 29.1 µM [inhibitor, single point] | – |
| CCc1cccc(NS(=O)(=O)c2ccc3c(c2)CCC(=O)N3)c1 | inconclusive: 35.5 µM [inhibitor, partial curve, poor fit] | – |
| c1ccc(-c2ccc(C3=Nn4c(nnc4-c4cc(-c5ccccc5)n[nH]4)SC3)cc2)cc1 | inconclusive: 14.6 µM [inhibitor, partial curve, poor fit] | – |
| COc1nccc(C(F)(F)F)c1C(=O)NC(=O)Nc1c(C)cccc1C | – | inactive: 4.72% |
| Cc1ccc(-n2nc3c(N4CCCC(C(=O)NCc5ccc(Cl)cc5)C4)nnc(C)c3c2C)cc1 (configuration not stated) | – | inactive: 8.86% [at 46.1 µM] |
| COC(=O)c1sccc1NC(=O)Nc1cccc(F)c1 | – | inactive: -2.04% [at 46.1 µM] |
| O=C(Nc1ccc(N2CCOCC2)cc1)c1cn2ccccc2n1 | active: 7.94 µM | – |

Given with bars between the fields: entries from further up
SMILES | Potency | activity change, negative = inhibition
O=C1CCCCC1C(=O)c1cn(-c2ccc(Cl)c(Cl)c2)nn1 (configuration not stated) | inconclusive: 5.62 µM [activator, single point] | –
O=C1OC(c2ccc(Br)cc2)=N/C1=C\c1ccco1 | – | inactive: 18.9%
Cc1ccc(NC(=O)Cn2c(=O)n(Cc3nc(C)no3)c(=O)c3cc4c(cc32)OCO4)c(C)c1 | – | inactive: 11.3% [at 46.1 µM]
O=C(COc1ccccc1)N1CCc2ccccc21 | inconclusive: 18.4 µM [activator, single point] | –

(listing goes on)

| SMILES | Potency | activity change, negative = inhibition |
| --- | --- | --- |
| O=S(=O)(c1ccc(Cl)cc1Cl)N1CCCC1c1cccnc1 (configuration not stated) | – | inactive: -2.83% |
| CC(=O)N1c2ccc(C)cc2Sc2c1ccc1ccccc21 | inconclusive: 12.6 µM [inhibitor, single point] | – |
| CS(=O)(=O)c1ccccc1C(=O)N(CCC1=CCCCC1)c1c(N)n(Cc2ccccc2)c(=O)[nH]c1=O | inconclusive: 22.4 µM [inhibitor, single point] | – |
| COc1cc(/C=C/c2nc3ccccc3c(=O)n2-c2cccc(O)c2)ccc1O | active: 1.26 µM | – |
| Cc1ccc(-c2nn3c(=O)cc(CN4CCN(C(=O)/C=C/c5ccccc5)CC4)nc3s2)cc1 | inconclusive: 7.94 µM [activator, partial curve, poor fit] | – |
| CCn1c(=O)c2sccc2n2c(CCCC(=O)N3CCN(c4cccc(Cl)c4)CC3)nnc12 | inconclusive: 7.94 µM [activator, partial curve, poor fit] | – |
| Cc1ccc(OC(=O)C23CC4CC(CC(C4)C2)C3)c(C)n1 | – | inactive: -13% |
| O=C(CN1C(=O)C2CCCN2c2ncc(Cl)cc21)NCc1ccc2c(c1)OCO2 (configuration not stated) | – | inactive: 13.1% |
| COc1ccc(-n2c(-c3ccc(Br)cc3)c[n+]3c2CCC3)cc1 | inconclusive: 6.31 µM [inhibitor, partial curve, poor fit] | – |
| Cc1ccsc1C(=O)OCC(=O)c1cc(C)n(CC2CCCO2)c1C (configuration not stated) | active: 2.59 µM | – |
| c1ccc(CCNc2nc(-c3ccncc3)nc3ccccc23)cc1 | inconclusive: 20 µM [inhibitor, single point] | – |
| Cc1cc(C(=O)Nc2ccc(N3CCCC3)c(Cl)c2)ccc1[N+](=O)[O-] | – | inactive: 3.51% [at 46.1 µM] |
| Cc1ccc(NC(=O)C(=S)NCc2ccco2)cc1 | – | inactive: 5.4% |
| Cc1c(C(=O)N2CCC(C)CC2)c(S(=O)(=O)NCc2ccc(Cl)cc2)c(C)n1C | – | inactive: 3.6% [at 46.1 µM] |
| Cc1ccccc1Cc1c(C)nc2nc(SCC(=O)N(C)c3ccccc3)nn2c1C | – | inactive: -30% [at 46.1 µM] |
| COc1ccc(S(=O)(=O)NCc2ccccn2)cc1NC(=O)c1ccccc1C | inconclusive: 0.355 µM [inhibitor, partial curve, poor fit] | – |
| COc1cc(CNc2ccc(N3CCCCC3)cc2)ccc1OCC(=O)NC(C)(C)C | inconclusive: 35.5 µM [inhibitor, single point] | – |
| CN(c1ccc(F)cc1)S(=O)(=O)N1CCCC(C(=O)NCc2cccc(Br)c2)C1 (configuration not stated) | inconclusive: 11.2 µM [inhibitor, single point] | – |
| CCOc1ccc(CN2C(=O)c3ccccc3C2C(=O)NC(C)CC)cc1OC (configuration not stated) | inconclusive: 35.5 µM [inhibitor, single point] | – |
| Oc1ccc(/C=N/n2c(-c3ccco3)csc2=Nc2cccnc2)c(O)c1 | inconclusive: 7.31 µM [inhibitor, single point] | – |
| O=C(Nc1ccc(N2CCOCC2)c(Cl)c1)c1ccccc1F | – | inactive: -26.1% |
| CC1=C(C(=O)Nc2ccc(C)cc2C)C(c2ccc([N+](=O)[O-])cc2)n2ncc(C(=O)Nc3ccc(F)cc3)c2N1 (configuration not stated) | – | inactive: 11.3% [at 46.1 µM] |
| Cc1nc(CS(=O)(=O)c2ccccn2)sc1C(=O)NNC(=O)c1ccccc1 | inconclusive: 35.5 µM [inhibitor, single point] | – |

| SMILES | Potency | activity change, negative = inhibition |
| --- | --- | --- |
| CC1(C)N([O-])C2=C(CCCC2)[N+]1=O | inconclusive: 7.94 µM [activator, partial curve] | – |
| O=C(c1ccco1)N1CCN(c2ccc(Cl)c(Cl)c2)CC1 | – | inactive: 11.4% |
| Cc1c(NS(=O)(=O)c2ccc(Cl)c(C(=O)OCC(=O)NCc3ccco3)c2)c(=O)n(-c2ccccc2)n1C | – | inconclusive: 3.51% [activator] |
| CCOc1ccc(N2C(=O)CC(N3CCN(C(=O)c4ccco4)CC3)C2=O)cc1 (configuration not stated) | – | inactive: 7.07% |
| N#Cc1ccc(CSc2nnc(-c3ccccn3)n2-c2ccccc2)cc1 | inconclusive: 35.5 µM [inhibitor, single point] | – |
| Cc1sc(NC(=O)C2=COCCO2)nc1-c1ccc(Cl)cc1 | inconclusive: 5.62 µM [activator, single point] | – |
| O=C(NCc1ccon1)C1CCC(=O)N(CCc2ccc(Cl)cc2)C1 (configuration not stated) | inconclusive: 1.41 µM [activator, partial curve, poor fit] | – |
| CCOc1ccc(OCCC(=O)N(CC)CC(=O)NCc2ccc(Cl)cc2)cc1 | inconclusive: 3.16 µM [inhibitor, full curve, poor fit] | – |
| O=C(CCNS(=O)(=O)c1ccc(Br)s1)NCc1ccccc1Cl | inconclusive: 2.31 µM [inhibitor, full curve] | – |
| Cc1cc(Cl)ccc1OC(C)C(=O)Nc1ccc(S(=O)(=O)N2CCOCC2)cc1 (configuration not stated) | inconclusive: 11.2 µM [inhibitor, partial curve, poor fit] | – |
| CCOC(=O)/C(C#N)=C/c1ccc(-c2ccsc2C(=O)OC)o1 | inconclusive: 4.11 µM [activator, full curve, poor fit] | – |
| C[C@@H](C(=O)Nc1ccc2ccccc2c1)[C@H]1C[C@]1(C)[C@H](NC(=O)c1cnccn1)c1ccccc1 | – | inactive: 5.79% |
| CSc1nc(C)cc(OCCNS(=O)(=O)c2ccc(C)cc2)n1 | inconclusive: 29.1 µM [inhibitor, single point] | – |
| Cc1cccc(NC(=O)c2cc3n(n2)C(C(F)(F)F)CC(c2ccc4c(c2)OCO4)N3)c1 (configuration not stated) | inconclusive: 7.3 µM [inhibitor, partial curve, poor fit] | – |
| CCN1CCC(N2CCN(c3ccc(F)cc3)CC2)CC1 | inconclusive: 6.31 µM [activator, single point] | – |
| O=C(NCCCN1CCOCC1)c1cc2c(s1)CCCC2 | inconclusive: 10 µM [activator, partial curve] | – |
| COC(=O)c1ccccc1NC(=O)CSc1ccc(C)cc1 | – | inactive: 11% |
| COc1ccc2cc(CN(Cc3ccco3)Cc3nnnn3C3CCCCC3)c(=O)[nH]c2c1 | inconclusive: 29.1 µM [inhibitor, single point] | – |
| c1ccc(-c2nnc(SCCC3OCCCO3)o2)cc1 | inconclusive: 13 µM [inhibitor, partial curve] | – |
| Cc1ccc(NC(=O)CNCc2cccs2)cc1Br | – | inactive: 6.79% |
| COc1cc2c(cc1OC)CN(C(=O)CCOc1ccccc1)CC2 | inconclusive: 22.4 µM [inhibitor, single point] | – |
